These are yes or no findings as the source states them, for the method shown. For some of these results: Binding seen in cells or lysates may run through a third protein. Some binding calls cover weakened binding; strength is not graded here.
How the values were obtained:
[1] = biological target: DAT fused to yellow fluorescent protein (YFP) (YFP-DAT) (human) (UniProt Q01959); assay: FRET or BRET; sensitized FRET microscopy from CFP to YFP in living PAE cells stably co-expressing CFP-DAT and YFP-DAT; DMSO or 20 µM AIM-100 for 90 min at 37°C, imaging at room temperature (20°C)
[2] = biological target: DAT fused to yellow fluorescent protein (YFP) (YFP-DAT) (human) (UniProt Q01959); assay: SDS-resistant oligomers on SDS-PAGE and western blot; PAE cells stably expressing the tagged transporter, vehicle (DMSO) or 20 µM AIM-100 for 2 hr at 37°C (also after cocaine, dopamine, amphetamine, modafinil, KRCA-0008, CHC siRNA, at 4°C or 20°C); lysis in TGH buffer, Laemmli buffer (2% SDS, 5% β-mercaptoethanol) 5 min at 95°C, 7.5% SDS-PAGE, blot with GFP antibody; oligomers (O) against monomers (M)
[3] = biological target: HA-DAT (endogenous, HA-DAT knock-in mouse) (mouse) (UniProt Q61327); assay: SDS-resistant oligomers on SDS-PAGE and western blot; striatal synaptosomes of adult HA-DAT mice in KRH/G, vehicle (DMSO) or 10–20 µM AIM-100 for 2 hr at 37°C; pelleted synaptosomes denatured in Laemmli buffer, SDS-PAGE, blot with DAT antibody
[4] = biological target: W63A mutant of YFP-HA-DAT (human) (UniProt Q01959); assay: SDS-resistant oligomers on SDS-PAGE and western blot; PAE cells stably expressing the tagged transporter, vehicle (DMSO) or 20 µM AIM-100 for 2 hr at 37°C (also after cocaine, dopamine, amphetamine, modafinil, KRCA-0008, CHC siRNA, at 4°C or 20°C); lysis in TGH buffer, Laemmli buffer (2% SDS, 5% β-mercaptoethanol) 5 min at 95°C, 7.5% SDS-PAGE, blot with GFP antibody; oligomers (O) against monomers (M)

Amino acid sequences for entries named in this document (tags omitted).
UniProt Q61327: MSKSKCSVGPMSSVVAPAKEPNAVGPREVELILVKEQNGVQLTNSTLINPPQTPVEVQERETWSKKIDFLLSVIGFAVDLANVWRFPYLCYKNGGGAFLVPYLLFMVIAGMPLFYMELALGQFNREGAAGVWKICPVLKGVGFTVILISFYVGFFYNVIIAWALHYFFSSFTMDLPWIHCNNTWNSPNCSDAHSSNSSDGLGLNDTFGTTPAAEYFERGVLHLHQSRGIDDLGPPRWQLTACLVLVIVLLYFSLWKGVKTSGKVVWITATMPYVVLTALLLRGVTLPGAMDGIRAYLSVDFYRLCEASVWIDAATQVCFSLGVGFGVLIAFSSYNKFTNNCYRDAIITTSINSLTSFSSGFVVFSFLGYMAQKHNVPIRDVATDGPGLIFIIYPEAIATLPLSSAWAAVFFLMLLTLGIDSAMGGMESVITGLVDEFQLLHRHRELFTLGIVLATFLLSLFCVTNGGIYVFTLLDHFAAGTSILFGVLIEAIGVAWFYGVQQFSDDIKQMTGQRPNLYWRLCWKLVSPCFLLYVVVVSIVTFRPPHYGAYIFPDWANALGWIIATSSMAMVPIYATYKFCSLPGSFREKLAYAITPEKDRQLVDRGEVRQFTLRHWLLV

Substance: DAT fused to yellow fluorescent protein (YFP) (YFP-DAT) (from UniProt Q01959 1-620)
- binding [1]: binds
- binding [2]: binds

Substance: HA-DAT (endogenous, HA-DAT knock-in mouse) (from UniProt Q61327 1-619)
- binding [3]: binds

Substance: W63A mutant of YFP-HA-DAT (from UniProt Q01959 1-620)
- binding [4]: binds
